Measured values as given in paper doi:10.1101/2021.02.08.430253.

Target: CG31030 with a C-terminal V5 tag (CG31030^V5) (Drosophila melanogaster)
Test: affinity purification with mass spectrometry

binding: binds
B1: ATP6AP2 (V-ATPase accessory subunit, fly homolog of human ATP6AP2/PRR) (protein, UniProt Q9VHG4 18-320)
chain: SGEFTVLNRPKAISFKGNDALESHYVGDVLYASMGNAVSGDTNWNGLTINDPFNLAKGVILVHVQGIGHVTTAGNVKTYELTGSGTDASLNALAAELEAANEPVCDINFEQFDDGVQAWKSCFGDFEAPAAKPTKHLNPSLHTADKQFLQEVGFINSAADHLAEMAKPSNVLMLRVSVDGVAKAHGEKSVAVEEANKLLSAAISRLLAASQKSSDSVLFVQTTEKDVAASRAKRDTIAASTTNPYNLAVYYGSDYPVIFNIILWFMVVFGLSLLAICYAIAAMDPGRDSIIYRMTSTRIKKDN

Results are given in words; binding and its absence hold for the method and conditions named. In cells and extracts the contact can be indirect. These calls come from enrichment with a bait or labelling near it, and not all partners need be listed.
